# Assay results reported in PubChem BioAssay (EPA / NIEHS).
# The chains behind the UniProt entries cited, without tags or fusion partners. Where a name states a change or a piece, a line headed by the entry shows the natural chain unless it says otherwise.
# UniProt P13631, whole entry, looked up: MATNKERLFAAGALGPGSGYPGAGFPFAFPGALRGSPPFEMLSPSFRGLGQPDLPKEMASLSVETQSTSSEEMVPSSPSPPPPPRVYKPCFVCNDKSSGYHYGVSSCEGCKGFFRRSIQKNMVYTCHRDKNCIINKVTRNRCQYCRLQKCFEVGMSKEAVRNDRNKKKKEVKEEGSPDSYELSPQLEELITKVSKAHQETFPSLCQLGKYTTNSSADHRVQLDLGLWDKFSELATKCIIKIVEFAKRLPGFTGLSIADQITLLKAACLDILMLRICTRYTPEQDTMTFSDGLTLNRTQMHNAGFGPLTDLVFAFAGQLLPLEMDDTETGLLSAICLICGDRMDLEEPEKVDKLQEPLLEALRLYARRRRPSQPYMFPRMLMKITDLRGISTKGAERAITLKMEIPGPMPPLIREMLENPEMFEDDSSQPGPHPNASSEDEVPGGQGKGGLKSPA
# UniProt Q92753: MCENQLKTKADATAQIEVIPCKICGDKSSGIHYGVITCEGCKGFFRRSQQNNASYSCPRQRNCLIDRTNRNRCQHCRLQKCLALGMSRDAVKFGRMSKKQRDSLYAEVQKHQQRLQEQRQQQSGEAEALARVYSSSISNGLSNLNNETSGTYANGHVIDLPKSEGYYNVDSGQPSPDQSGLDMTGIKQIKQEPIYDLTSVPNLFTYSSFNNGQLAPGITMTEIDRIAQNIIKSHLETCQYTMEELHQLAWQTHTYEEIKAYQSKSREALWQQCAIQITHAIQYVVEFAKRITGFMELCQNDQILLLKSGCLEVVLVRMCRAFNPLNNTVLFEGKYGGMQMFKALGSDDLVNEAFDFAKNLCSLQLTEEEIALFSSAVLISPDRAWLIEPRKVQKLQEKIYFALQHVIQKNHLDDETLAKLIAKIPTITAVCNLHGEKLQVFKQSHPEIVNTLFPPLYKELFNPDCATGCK
# UniProt P28702: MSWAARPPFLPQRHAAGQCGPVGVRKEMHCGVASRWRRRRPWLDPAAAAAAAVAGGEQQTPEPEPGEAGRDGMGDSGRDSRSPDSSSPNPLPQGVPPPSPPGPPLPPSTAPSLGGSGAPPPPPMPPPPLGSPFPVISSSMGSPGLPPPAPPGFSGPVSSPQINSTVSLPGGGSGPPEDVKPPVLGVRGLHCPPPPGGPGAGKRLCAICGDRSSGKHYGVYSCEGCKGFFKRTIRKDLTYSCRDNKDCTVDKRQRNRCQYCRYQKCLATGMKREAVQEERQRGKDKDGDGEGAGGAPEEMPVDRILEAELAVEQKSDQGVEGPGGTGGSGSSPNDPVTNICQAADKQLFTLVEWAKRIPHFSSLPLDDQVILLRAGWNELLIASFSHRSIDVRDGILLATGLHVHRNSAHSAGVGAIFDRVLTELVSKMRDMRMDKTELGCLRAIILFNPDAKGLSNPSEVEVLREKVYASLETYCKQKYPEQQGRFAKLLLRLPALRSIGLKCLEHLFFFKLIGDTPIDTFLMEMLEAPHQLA
# UniProt P10827: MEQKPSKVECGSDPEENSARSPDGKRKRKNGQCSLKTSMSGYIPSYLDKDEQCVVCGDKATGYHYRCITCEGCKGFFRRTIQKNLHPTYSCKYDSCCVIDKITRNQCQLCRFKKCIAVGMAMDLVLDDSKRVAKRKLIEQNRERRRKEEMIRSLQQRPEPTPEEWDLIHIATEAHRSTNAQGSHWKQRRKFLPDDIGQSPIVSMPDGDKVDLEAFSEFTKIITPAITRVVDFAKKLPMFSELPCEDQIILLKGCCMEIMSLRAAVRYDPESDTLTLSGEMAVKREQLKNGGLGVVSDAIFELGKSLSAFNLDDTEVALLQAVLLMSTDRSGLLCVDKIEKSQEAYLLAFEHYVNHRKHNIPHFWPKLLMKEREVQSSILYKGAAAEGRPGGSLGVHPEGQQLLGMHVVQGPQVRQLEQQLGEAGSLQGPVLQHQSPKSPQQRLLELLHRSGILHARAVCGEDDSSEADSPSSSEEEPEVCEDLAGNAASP
# UniProt P11473: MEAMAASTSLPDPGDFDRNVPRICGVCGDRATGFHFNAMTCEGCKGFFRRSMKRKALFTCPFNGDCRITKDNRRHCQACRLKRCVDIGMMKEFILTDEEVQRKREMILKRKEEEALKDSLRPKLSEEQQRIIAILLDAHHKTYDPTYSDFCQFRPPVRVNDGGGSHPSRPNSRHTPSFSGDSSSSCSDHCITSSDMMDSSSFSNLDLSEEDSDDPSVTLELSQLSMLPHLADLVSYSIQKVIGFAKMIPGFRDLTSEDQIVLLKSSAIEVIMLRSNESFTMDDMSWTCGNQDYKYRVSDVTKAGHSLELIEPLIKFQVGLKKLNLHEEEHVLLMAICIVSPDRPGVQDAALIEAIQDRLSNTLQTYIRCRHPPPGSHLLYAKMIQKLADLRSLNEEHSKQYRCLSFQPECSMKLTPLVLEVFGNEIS
# UniProt P51449: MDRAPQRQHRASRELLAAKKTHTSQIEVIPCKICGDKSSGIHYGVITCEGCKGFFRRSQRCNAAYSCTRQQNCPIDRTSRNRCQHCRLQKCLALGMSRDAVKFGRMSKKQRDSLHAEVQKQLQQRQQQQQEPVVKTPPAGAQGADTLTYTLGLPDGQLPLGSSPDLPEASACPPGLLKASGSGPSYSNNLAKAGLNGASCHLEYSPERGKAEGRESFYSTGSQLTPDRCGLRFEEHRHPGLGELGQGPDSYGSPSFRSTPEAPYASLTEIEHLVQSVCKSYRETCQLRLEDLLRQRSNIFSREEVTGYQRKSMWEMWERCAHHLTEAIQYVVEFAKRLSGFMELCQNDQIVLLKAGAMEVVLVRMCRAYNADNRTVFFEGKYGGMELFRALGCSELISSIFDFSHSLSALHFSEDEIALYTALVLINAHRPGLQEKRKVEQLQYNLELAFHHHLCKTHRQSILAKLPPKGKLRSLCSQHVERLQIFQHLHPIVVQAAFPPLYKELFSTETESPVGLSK
# UniProt P19793: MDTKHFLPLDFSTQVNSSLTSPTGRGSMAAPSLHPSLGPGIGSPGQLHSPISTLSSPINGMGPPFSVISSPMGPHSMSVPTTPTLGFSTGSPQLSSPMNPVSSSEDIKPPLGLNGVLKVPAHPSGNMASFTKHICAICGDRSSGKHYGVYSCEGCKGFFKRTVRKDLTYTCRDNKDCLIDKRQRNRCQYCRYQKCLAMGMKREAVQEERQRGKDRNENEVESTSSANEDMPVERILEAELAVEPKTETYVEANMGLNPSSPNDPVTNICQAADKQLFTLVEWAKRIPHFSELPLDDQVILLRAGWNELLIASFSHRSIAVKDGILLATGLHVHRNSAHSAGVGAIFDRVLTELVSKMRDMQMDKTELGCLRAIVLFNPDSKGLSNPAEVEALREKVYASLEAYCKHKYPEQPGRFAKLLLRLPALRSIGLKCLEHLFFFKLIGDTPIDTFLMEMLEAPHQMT
# Values joined by “and” are separate entries in the source; they are usually repeats but may differ in a detail not shown here. Equal values may be shown once. The inconclusive results got no clear call from the source; some entries with a clear call stand among them for comparison. Where the call is inconclusive, the potency comes from a doubtful curve fit. More than one record can exist for a structure, and the calls need not agree. Active and inactive are the calls of the source. How the source made its calls: active means hit-call score of the fitted dose curve at least 0.9, where 1 is the maximum; inconclusive means response in the unintended direction; inactive means score below 0.9.
# Experiments:
# [1] = biological target: human Retinoic Acid Receptor gamma (RARg), RARG (gene 5916) (UniProt P13631); assay: ATG_RARg_TRANS: Attagene TRANS-FACTORIAL HepG2 Assay for human Retinoic Acid Receptor gamma (RARg) (AID 2283009);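 on AC50: AC50 is for reporter induction above DMSO meaning RARg activation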
# Summary of the method: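 TRANS format measured activity of exogenous NR-GAL4 fusion (RARg) in transfected HepG2 liver cells after 24 h dosing. Induced reporter RNA was detected by RT-PCR/capillary electrophoresis fluorescence, analysed in the positive direction against DMSO.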
# [2] = biological target: human RAR-related Orphan Receptor beta (RORb), RORB (gene 6096) (UniProt Q92753); assay: ATG_RORb_TRANS: Attagene TRANS-FACTORIAL HepG2 Assay for human RAR-related Orphan Receptor beta (RORb) (AID 2283010);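 on AC50: potency for increased reporter mRNA meaning activation of RORb-Gal4 chimera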
# Summary of the method: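 Transfect HepG2 with multiple GAL4-UAS reporter transcription units; dose chemicals for 24 h; isolate RNA, reverse-transcribe and PCR-amplify reporter sequences; label, digest and resolve fragments by capillary electrophoresis; fit increases relative to DMSO.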
# [3] = biological target: human Retinoid X Receptor beta (RXRb), RXRB (gene 6257) (UniProt P28702); assay: ATG_RXRb_TRANS: Attagene TRANS-FACTORIAL HepG2 Assay for human Retinoid X Receptor beta (RXRb) (AID 2283013)
# Summary of the method: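 Chimeric receptor-Gal4 activity was assessed in transiently transfected human HepG2 cells after 24 h exposure. Transcripts from GAL4-UAS reporters were quantified by fluorescent RT-PCR and capillary electrophoresis, with DMSO as negative control and baseline.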
# [4] = biological target: human Thyroid Receptor alpha (THRa1), THRA (gene 7067) (UniProt P10827); assay: ATG_THRa1_TRANS: Attagene TRANS-FACTORIAL HepG2 Assay for human Thyroid Receptor alpha (THRa1) (AID 2283014)
# Summary of the method: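 Reporter transcript induction, read by capillary electrophoresis of 6-FAM-labelled RT-PCR products, reflects activity of a transfected THRa1-Gal4 fusion in HepG2 liver cells. Cells were dosed for 24 h; activity was fitted in the positive direction against DMSO.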
# [5] = biological target: human Vitamin D Receptor (VDR), VDR (gene 7421) (UniProt P11473); assay: ATG_VDR_TRANS: Attagene TRANS-FACTORIAL HepG2 Assay for human Vitamin D Receptor (VDR) (AID 2283022)
# Summary of the method: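 Steps: transfect HepG2 with GAL4-UAS-driven reporter constructs; dose compounds 24 h; isolate RNA, reverse-transcribe, PCR-amplify with 6-FAM-labelled primer extension and HpaI digestion; quantify fragments by capillary electrophoresis relative to DMSO.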
# [6] = biological target: human RAR-related Orphan Receptor gamma (RORg), RORC (gene 6097) (UniProt P51449); assay: ATG_RORg_TRANS: Attagene TRANS-FACTORIAL HepG2 Assay for human RAR-related Orphan Receptor gamma (RORg) (AID 2283011);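 on AC50: potency for induction of reporter transcripts above DMSO so activators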
# Summary of the method: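 First, HepG2 liver cells were transfected with GAL4-UAS-driven reporter constructs and the RORg-Gal4 fusion. Next, they were treated with chemical for 24 h. Finally, reporter mRNA was quantified by RT-PCR and capillary electrophoresis, with upward activity fitted against DMSO.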
# [7] = biological target: Retinoic acid receptor RXR-alpha (Homo sapiens) (UniProt P19793); assay: ATG_RXRa_TRANS: Attagene TRANS-FACTORIAL HepG2 Assay for human Retinoid X Receptor alpha (RXRa) (AID 2283012)
# Summary of the method: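 Measures exogenous chimeric NR-GAL4 activity in transfected HepG2 liver cells after 24 h of dosing. Induced reporter mRNA was detected by RT-PCR with capillary electrophoresis, and gain of signal was analysed against DMSO.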
structure (smiles),measurement,setting,value
CCN(CC)c1ccc2c(C)cc(=O)oc2c1,AC50,[1],inconclusive: 1.52 µM
same,AC50,[2],inconclusive: 179 µM
same,AC50,[3],active: 26.5 µM
same,outcome,[4],inactive
same,AC50,[5],inconclusive: 100 µM
NC(=O)C(F)(F)C(F)(F)C(F)(F)C(F)(F)C(N)=O,AC50,[1],inconclusive: 268 µM
same,AC50,[6],inconclusive: 261 µM
same,AC50,[7],inconclusive: 150 µM
same,AC50,[3],inconclusive: 150 µM
CCC(C)C1CCCCC1=O (configuration not stated),outcome,[1],inactive
same,outcome,[2],inactive
same,outcome,[7],inactive
same,outcome,[4],inactive
same,AC50,[5],inconclusive: 23.3 µM
NNC(=O)OCc1ccccc1,AC50,[1],inconclusive: 100 µM
same,outcome,[2],inactive
same,outcome,[4],inactive
CC(O)C#CC(C)O (configuration not stated),outcome,[1],inactive
same,AC50,[6],active: 136 µM
CCCCOC(=O)C(C)OC(=O)CCC (configuration not stated),AC50,[1],inconclusive: 177 µM
same,outcome,[6],inactive
same,AC50,[7],inconclusive: 100 µM
same,AC50,[3],inconclusive: 100 µM
same,outcome,[4],inactive
same,outcome,[5],inactive
CCN(CCC#N)c1ccc(N=Nc2ccc([N+](=O)[O-])cc2)cc1,AC50,[1],inconclusive: 100 µM
same,outcome,[2],inactive
same,AC50,[3],inconclusive: 100 µM
same,AC50,[4],inconclusive: 100 µM
CNC(=C[N+](=O)[O-])NCCSCc1ccc(CN(C)C)o1,outcome,[1],inactive
same,outcome,[2],inactive
same,AC50,[3],inconclusive: 100 µM
same,AC50,[5],inconclusive: 24.1 µM
Brc1ccc(Oc2ccc(Br)cc2)cc1,AC50,[1],inconclusive: 0.0823 µM
same,AC50,[2],inconclusive: 100 µM
same,outcome,[4],inactive
C=C(C)C(=O)OCCCCCCCCCCCC,AC50,[1],inconclusive: 100 µM
same,outcome,[2],inactive
same,AC50,[3],active: 67.8 µM
same,outcome,[4],inactive
NC(=O)C(F)(F)C(F)(F)C(F)(F)C(F)(F)C(F)(F)C(F)(F)C(F)(F)F,outcome,[1],inactive
same,outcome,[2],inactive
same,outcome,[4],inactive
same,AC50,[5],inconclusive: 150 µM
Oc1cccc2ccccc12,AC50,[2],inconclusive: 170 µM
same,outcome,[6],inactive
same,outcome,[3],inactive
CCC(C)c1cc([N+](=O)[O-])cc([N+](=O)[O-])c1OC(=O)OC(C)C (configuration not stated),outcome,[2],inactive
same,outcome,[6],inactive
same,AC50,[7],active: 32.6 µM
same,AC50,[3],inconclusive: 100 µM
same,outcome,[4],inactive
O=C1CCCCCCCCCCCC(=O)OCCO1,outcome,[2],inactive
same,outcome,[6],inactive
same,AC50,[7],inconclusive: 100 µM
same,AC50,[3],inconclusive: 100 µM
COc1c(Cl)c(Cl)c(Cl)c(Cl)c1Cl,AC50,[2],inconclusive: 15.2 µM
same,AC50,[6],inconclusive: 100 µM
same,AC50,[7],active: 29.1 µM
same,AC50,[3],active: 6.22 µM
CCOC(=O)CN[C@@H](C(=O)N1CC[C@H]1C(=O)NCc1ccc(/C(N)=N/O)cc1)C1CCCCC1,AC50,[2],inconclusive: 8.92 µM
same,AC50,[6],inconclusive: 5 µM
same,AC50,[3],active: 1.42 µM
CCCCC(CC)COCCO (configuration not stated),outcome,[2],inactive
same,AC50,[6],inconclusive: 100 µM
same,AC50,[3],active: 100 µM
NC(N)=NC(=O)c1nc(Cl)c(N)nc1N,outcome,[2],inactive
same,AC50,[6],inconclusive: 100 µM
same,AC50,[3],inconclusive: 100 µM

# Random excerpt: 3 records from the list
structure (smiles),measurement,setting,value
COc1c(Cl)c(Cl)c(Cl)c(Cl)c1Cl,AC50,[3],active: 6.22 µM
CCC(C)C1CCCCC1=O (configuration not stated),outcome,[7],inactive
CCOC(=O)CN[C@@H](C(=O)N1CC[C@H]1C(=O)NCc1ccc(/C(N)=N/O)cc1)C1CCCCC1,AC50,[6],inconclusive: 5 µM
